PubChem BioAssay AID504834 (National Center for Advancing Translational Sciences (NCATS), 2011)
In all, about 320,000 compounds went through this assay and about 22,000 (6.9%) were called active. Inconclusive means that the source gave no clear call. Such entries were picked first, then a sample of the others. Calls come from the whole dose curve; as a rule, active = well fitted inhibition curve with a large enough effect; inconclusive = small, poorly fitted or top-dose-only effect, or another doubt; inactive = no such curve, though single readings can be large or run the other way. Potencies of inconclusive entries are doubtful fits and often do not repeat.

Test: Primary qHTS for delayed death inhibitors of the malarial parasite plastid, 96 hour incubation
Details: P. falciparum luciferase reporter growth; series mostly up to 28.7 µM; activity change, negative = inhibition: at the top concentration
How it was run: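 Two parasite generations (96 h, 37 C, 5% CO2) of compound exposure in infected erythrocytes (0.05% parasitemia, 2% hematocrit). Luciferase-reporter P. falciparum; decreased luminescence indicates inhibited growth, aimed at apicoplast-acting delayed death.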
% is set by controls: 0 for no effect and ±100 for the full control effect; potency is the fitted concentration of half-maximal effect.

Row | SMILES | Potency | activity change, negative = inhibition
1 | COc1cccc(N2CCN(C(=O)/C=C/c3ccco3)CC2)c1 | inconclusive: 10.4 µM [inhibitor, single point] | 
2 | CN(Cc1ccccc1)C(=O)c1nn2cccnc2c1Cl | inconclusive: 9.28 µM [inhibitor, single point] | 
3 | Cc1cccc(COCC(CC(C)C)N2CCN(C(=O)c3ccc(C(F)(F)F)cc3)CCC2=O)c1 (centres undefined) | inconclusive: 11.7 µM [inhibitor, single point] | 
4 | CC(C)(Cc1ccc(O)cc1)NC(=O)CC(=O)N/N=C/c1ccc(Cl)cc1 | inconclusive: 3.7 µM [inhibitor, partial curve, poor fit] | 
5 | CCOCCCN(C(=O)Cn1nnc(-c2ccc(C)o2)n1)C(C(=O)NCC1CCCO1)c1ccc(F)cc1 (centres undefined) | inconclusive: 16.5 µM [inhibitor, single point] | 
6 | CS(=O)(=O)Oc1ccc2c(c1)O/C(=C\c1cccc([N+](=O)[O-])c1)C2=O | inconclusive: 16.5 µM [inhibitor, single point] | 
7 | Cc1csc(NC(=O)CCC(=O)N(CC(=O)NC2CCCC2)Cc2ccco2)n1 |  | inactive: 0.964%
8 | COc1ccc(-c2cc(C)no2)cc1S(=O)(=O)NCC1CCN(Cc2cc(C)ccc2C)CC1 | inconclusive: 13.1 µM [inhibitor, partial curve, poor fit] | 
9 | Cc1ccc(C(=O)Nc2ccc(N3CCOCC3)c3nonc23)cc1[N+](=O)[O-] | inconclusive: 18.5 µM [inhibitor, single point] | 
10 | CCOc1ccc(NC(=O)CSc2ccc3nnc(-c4ccccn4)n3n2)cc1 | inconclusive: 13.1 µM [inhibitor, partial curve, poor fit] | 
11 | COc1ccccc1C1CCN(C(=S)Nc2ccc(Br)cc2)CC1 |  | inactive: 22.2%
12 | CCOC(=O)C1(Cc2cccc(OC)c2)CCN(Cc2cnc(N)nc2)CC1 | inconclusive: 10.4 µM [inhibitor, single point] | 
13 | CC(=O)Nc1nc(C)c(-c2csc(Nc3ccc(S(N)(=O)=O)cc3)n2)s1 | inconclusive: 18.5 µM [inhibitor, single point] | 
14 | O=C(COc1ccccc1[N+](=O)[O-])Nc1ccc2c(c1)OCO2 | inconclusive: 18.5 µM [inhibitor, single point] | 
15 | Cc1ccc(S(=O)(=O)c2c(C)nn(-c3ccccc3)c2OC(=O)c2ccco2)cc1 |  | inactive: 1.58%
16 | CCC(=O)NC(=S)Nc1ccc(NC(=O)c2cccnc2)cc1 | inconclusive: 18.5 µM [inhibitor, single point] | 
17 | Cc1cccc(C)c1NC(=O)NC1(C(=O)NCCCN2CCOCC2)CCCCC1 |  | inactive: -3.14%
18 | COc1ccc(-c2cc3c(=O)n(CC(=O)NCCCN4CCC(N5CCCCC5)CC4)nc(C)n3n2)cc1 | active: 8.28 µM | 
19 | CC1(c2ccc3ccccc3c2)NC(=O)N(CC(=O)N2CCN(Cc3ccccc3)CC2)C1=O (centres undefined) | inconclusive: 13.1 µM [inhibitor, single point] | 
20 | CC1CCCN(CC(=O)Nc2cc(Cl)ccc2Oc2ccccc2)C1 (centres undefined) | inconclusive: 11.7 µM [inhibitor, partial curve] | 
21 | CCNC(=O)c1cccc(S(=O)(=O)N2CCCCCC2)c1 | inconclusive: 3.29 µM [inhibitor, partial curve, poor fit] | 
22 | Cc1ccc(C(=O)C2CCN(S(=O)(=O)c3ccc(C(=O)O)cc3)CC2)cc1 | inconclusive: 18.5 µM [inhibitor, single point] | 
23 | Cc1cc(C)c(S(=O)(=O)N2CCN(C(=O)c3cc4ccccc4oc3=O)CC2)c(C)c1 | inconclusive: 11.7 µM [inhibitor, partial curve] | 

As entered above:
Value for `CC1(c2ccc3ccccc3c2)NC(=O)N(CC(=O)N2CCN(Cc3ccccc3)CC2)C1=O` (centres undefined) under Potency: inconclusive: 13.1 µM [inhibitor, single point]
Value for `CC1CCCN(CC(=O)Nc2cc(Cl)ccc2Oc2ccccc2)C1` (centres undefined) under Potency: inconclusive: 11.7 µM [inhibitor, partial curve]
Value for `CCOC(=O)C1(Cc2cccc(OC)c2)CCN(Cc2cnc(N)nc2)CC1` under Potency: inconclusive: 10.4 µM [inhibitor, single point]

Next entries

Row | SMILES | Potency | activity change, negative = inhibition
24 | O=C(CSc1nnnn1-c1ccc(O)cc1)c1cc2ccccc2o1 | inconclusive: 18.5 µM [inhibitor, single point] | 
25 | COc1cc(N2CCOCC2)ccc1/C=C1\C(=O)NC(=O)N(Cc2cccs2)C1=O |  | inactive: -6.06%
26 | COc1ccc(C(=O)NC(=S)N2C[C@H]3C[C@H](C2)c2cccc(=O)n2C3)cc1OC | inconclusive: 18.5 µM [inhibitor, single point] | 
27 | Cc1ccc(Cn2c(C)c3cnn(CC(=O)N4CCC5(CC4)OCCO5)c(=O)c3c2C)cc1 | inconclusive: 9.28 µM [inhibitor, partial curve] | 
28 | CC(Nc1nc(-c2ccccc2O)nc2ccccc12)c1ccccc1 (centres undefined) | inconclusive: 18.5 µM [inhibitor, single point] | 
29 | O=C(Nc1cc(C(F)(F)F)ccc1-n1cncn1)c1ccc(Cl)cc1 | inconclusive: 4.65 µM [inhibitor, partial curve, poor fit] | 
30 | Cc1cccc(C(=O)NC(=S)N2CCN(c3ccc([N+](=O)[O-])cc3)CC2)c1 | inconclusive: 18.5 µM [inhibitor, single point] | 
31 | COC(=O)C(C)(C)ONC(=O)Nc1ccc(Br)cc1 |  | inactive: 50.9%
32 | CCCc1c(C(=O)N/N=C/c2ccco2)nnn1-c1nonc1N |  | inactive: 55.7%
33 | CC(=O)c1ccc(Oc2nc(-c3cccnc3)nc3ccccc23)cc1 |  | inactive: -8.34%
34 | C#CCNC(=O)C1=C[C@@H](c2ccc(C(F)(F)F)cc2)[C@H](CCCO)[C@@H](OCC)O1 | active: 11.7 µM | 
35 | COc1ccc(S(=O)(=O)N2CCCCC2)cc1NC(=O)c1c(F)cccc1Cl | active: 2.94 µM | 
36 | CC1=CC(=O)C(C(C)C)=C/C1=N\OC(=O)c1cccc2nc(C)oc12 | inconclusive: 14.7 µM [inhibitor, single point] | 
37 | Cc1cccc(C)c1NC(=O)COC(=O)c1c2c(nc3ccccc13)/C(=C\c1ccc3c(c1)OCO3)CCC2 | inconclusive: 6.57 µM [inhibitor, partial curve] | 
38 | CC(C)Oc1cc(NC(=O)CS(=O)CC(=O)N(C)C)c(Cl)cc1Cl (centres undefined) | inconclusive: 16.5 µM [inhibitor, partial curve, poor fit] | 
39 | CCN1CCCC1CNC(=O)c1ccc2c(c1)N(Cc1cccc(Cl)c1)C(=O)c1ccccc1S2(=O)=O (centres undefined) | inconclusive: 18.5 µM [inhibitor, single point] | 
40 | COc1nccnc1NS(=O)(=O)c1ccc(N=Cc2c(C)[nH]n(-c3ccc(Cl)cc3)c2=O)cc1 | inconclusive: 11.7 µM [inhibitor, single point] | 
41 | COc1ccc2cc3cc(C(=O)NCc4cccs4)oc3nc2c1 |  | inactive: -6.45%
42 | Cc1nc(-c2cccc(NC(=O)c3cccc(S(=O)(=O)N4CCCC4)c3)c2)cs1 | inconclusive: 2.62 µM [inhibitor, full curve] | 
43 | C=CCNc1ncnc2c1[nH]c1ccccc12 | inconclusive: 11.7 µM [inhibitor, single point] | 
44 | c1ccc(Oc2nc3ccccc3n3cccc23)cc1 |  | inactive: -22.7%
45 | Cc1ccccc1-n1c(C)nc2ccccc2c1=O | inconclusive: 11.7 µM [inhibitor, single point] | 
46 | Cc1nonc1NC(=O)c1oc2ccccc2c1C | inconclusive: 0.465 µM [inhibitor, full curve, poor fit] | 

Two of the compounds above, in markdown.

| Row | SMILES | Potency | activity change, negative = inhibition |
| --- | --- | --- | --- |
| 25 | COc1cc(N2CCOCC2)ccc1/C=C1\C(=O)NC(=O)N(Cc2cccs2)C1=O |  | inactive: -6.06% |
| 26 | COc1ccc(C(=O)NC(=S)N2C[C@H]3C[C@H](C2)c2cccc(=O)n2C3)cc1OC | inconclusive: 18.5 µM [inhibitor, single point] |  |

(next part)

Row | SMILES | Potency | activity change, negative = inhibition
47 | Cc1ccccc1OCCCC(=O)Nc1ccccc1C(F)(F)F | inconclusive: 11.7 µM [inhibitor, single point] | 
48 | COC(=O)Nc1c(-c2ccccc2)nc2ccc(C)cn12 | active: 4.65 µM | 
49 | O=[N+]([O-])c1ccc2c(c1)C=C1CCCCC1(N1CCCCC1)O2 (centres undefined) | inconclusive: 1.85 µM [inhibitor, full curve, poor fit] | 
50 | CC(=O)c1cccc(NC(=O)CSCc2ccc(Br)cc2)c1 |  | inactive: -7.96%
51 | COc1ccc(NC(=O)CCN2C(=O)C3CC=CCC3C2=O)cc1S(=O)(=O)N1CCCCC1 (centres undefined) |  | inactive: -0.639%
52 | Cc1ccc(S(=O)(=O)N2CCCCC2CCNC(=O)C(=O)NCc2ccccc2)cc1 (centres undefined) | inconclusive: 14.7 µM [inhibitor, single point] | 
53 | Cc1ccc(NC(=O)COc2cccc3ccc(C)nc23)c(Br)c1 | inconclusive: 11.7 µM [inhibitor, single point] | 
54 | N#Cc1cccc(OCC(=O)NC(=O)NCc2ccccc2)c1 |  | inactive: -19.9%
55 | Cc1cc(NCC2CCCCC2)nc2ccccc12 | inconclusive: 7.38 µM [inhibitor, single point] | 
56 | C=CCOC(=O)C1=C(C)Nc2ncnn2C1c1cc(Br)ccc1F (centres undefined) |  | inactive: -11.9%
57 | COc1cccc(C(=O)CSc2nccn2C)c1 | active: 11.7 µM | 
58 | CCCc1nc(SCC(=O)Nc2ccccc2OC)c2c(=O)n(C)c(=O)n(C)c2n1 | inconclusive: 14.7 µM [inhibitor, partial curve, poor fit] | 
59 | Cc1ccc(OC(=O)c2ccc(Br)o2)cc1 |  | inactive: 7.93%
60 | COc1ccccc1NS(=O)(=O)c1ccc2c(c1)N(C(C)=O)CC(C)S2 (centres undefined) | inconclusive: 7.38 µM [inhibitor, partial curve] | 
61 | NS(=O)(=O)c1ccc(NC(=O)c2cc(-c3cccs3)nc3ccccc23)cc1 | active: 0.415 µM | 
62 | CN(C)S(=O)(=O)c1cccc(NC(=O)c2cccc(S(=O)(=O)N3CCc4ccccc43)c2)c1 | active: 9.28 µM | 
63 | OCCN1CCN(Cc2ccc3ccccc3c2)CC1 |  | inactive: 4.32%
64 | Cc1ccc(-c2nc(N)n(S(C)(=O)=O)n2)cc1 |  | inactive: -3.2%
65 | COCCn1c(SCC(=O)N2CCCc3ccccc32)nnc1-c1ccoc1C | inconclusive: 9.28 µM [inhibitor, single point] | 
66 | O=S(=O)(c1cccc(S(=O)(=O)N2CCC(Cc3ccccc3)CC2)c1)N1CCOCC1 | inconclusive: 2.94 µM [inhibitor, full curve, poor fit] | 
67 | O=C(O)c1ccc(CNC(=O)C2CCCN2C(=O)OCc2ccccc2)cc1 (centres undefined) |  | inactive: 25.2%
68 | CCOC(=O)c1cnc2c(-c3cccc(Br)c3)cnn2c1C |  | inactive: 0.465%
69 | O=S(=O)(c1ccccc1)c1nc(-c2ccccc2F)oc1NCc1cccnc1 | inconclusive: 10.4 µM [inhibitor, partial curve] | 
